Among the data in article doi:10.1101/2024.09.09.611999 are binding values, retold here.

By UniProt entry, the sequences of proteins in these tests, tags left out.
UniProt Q13315: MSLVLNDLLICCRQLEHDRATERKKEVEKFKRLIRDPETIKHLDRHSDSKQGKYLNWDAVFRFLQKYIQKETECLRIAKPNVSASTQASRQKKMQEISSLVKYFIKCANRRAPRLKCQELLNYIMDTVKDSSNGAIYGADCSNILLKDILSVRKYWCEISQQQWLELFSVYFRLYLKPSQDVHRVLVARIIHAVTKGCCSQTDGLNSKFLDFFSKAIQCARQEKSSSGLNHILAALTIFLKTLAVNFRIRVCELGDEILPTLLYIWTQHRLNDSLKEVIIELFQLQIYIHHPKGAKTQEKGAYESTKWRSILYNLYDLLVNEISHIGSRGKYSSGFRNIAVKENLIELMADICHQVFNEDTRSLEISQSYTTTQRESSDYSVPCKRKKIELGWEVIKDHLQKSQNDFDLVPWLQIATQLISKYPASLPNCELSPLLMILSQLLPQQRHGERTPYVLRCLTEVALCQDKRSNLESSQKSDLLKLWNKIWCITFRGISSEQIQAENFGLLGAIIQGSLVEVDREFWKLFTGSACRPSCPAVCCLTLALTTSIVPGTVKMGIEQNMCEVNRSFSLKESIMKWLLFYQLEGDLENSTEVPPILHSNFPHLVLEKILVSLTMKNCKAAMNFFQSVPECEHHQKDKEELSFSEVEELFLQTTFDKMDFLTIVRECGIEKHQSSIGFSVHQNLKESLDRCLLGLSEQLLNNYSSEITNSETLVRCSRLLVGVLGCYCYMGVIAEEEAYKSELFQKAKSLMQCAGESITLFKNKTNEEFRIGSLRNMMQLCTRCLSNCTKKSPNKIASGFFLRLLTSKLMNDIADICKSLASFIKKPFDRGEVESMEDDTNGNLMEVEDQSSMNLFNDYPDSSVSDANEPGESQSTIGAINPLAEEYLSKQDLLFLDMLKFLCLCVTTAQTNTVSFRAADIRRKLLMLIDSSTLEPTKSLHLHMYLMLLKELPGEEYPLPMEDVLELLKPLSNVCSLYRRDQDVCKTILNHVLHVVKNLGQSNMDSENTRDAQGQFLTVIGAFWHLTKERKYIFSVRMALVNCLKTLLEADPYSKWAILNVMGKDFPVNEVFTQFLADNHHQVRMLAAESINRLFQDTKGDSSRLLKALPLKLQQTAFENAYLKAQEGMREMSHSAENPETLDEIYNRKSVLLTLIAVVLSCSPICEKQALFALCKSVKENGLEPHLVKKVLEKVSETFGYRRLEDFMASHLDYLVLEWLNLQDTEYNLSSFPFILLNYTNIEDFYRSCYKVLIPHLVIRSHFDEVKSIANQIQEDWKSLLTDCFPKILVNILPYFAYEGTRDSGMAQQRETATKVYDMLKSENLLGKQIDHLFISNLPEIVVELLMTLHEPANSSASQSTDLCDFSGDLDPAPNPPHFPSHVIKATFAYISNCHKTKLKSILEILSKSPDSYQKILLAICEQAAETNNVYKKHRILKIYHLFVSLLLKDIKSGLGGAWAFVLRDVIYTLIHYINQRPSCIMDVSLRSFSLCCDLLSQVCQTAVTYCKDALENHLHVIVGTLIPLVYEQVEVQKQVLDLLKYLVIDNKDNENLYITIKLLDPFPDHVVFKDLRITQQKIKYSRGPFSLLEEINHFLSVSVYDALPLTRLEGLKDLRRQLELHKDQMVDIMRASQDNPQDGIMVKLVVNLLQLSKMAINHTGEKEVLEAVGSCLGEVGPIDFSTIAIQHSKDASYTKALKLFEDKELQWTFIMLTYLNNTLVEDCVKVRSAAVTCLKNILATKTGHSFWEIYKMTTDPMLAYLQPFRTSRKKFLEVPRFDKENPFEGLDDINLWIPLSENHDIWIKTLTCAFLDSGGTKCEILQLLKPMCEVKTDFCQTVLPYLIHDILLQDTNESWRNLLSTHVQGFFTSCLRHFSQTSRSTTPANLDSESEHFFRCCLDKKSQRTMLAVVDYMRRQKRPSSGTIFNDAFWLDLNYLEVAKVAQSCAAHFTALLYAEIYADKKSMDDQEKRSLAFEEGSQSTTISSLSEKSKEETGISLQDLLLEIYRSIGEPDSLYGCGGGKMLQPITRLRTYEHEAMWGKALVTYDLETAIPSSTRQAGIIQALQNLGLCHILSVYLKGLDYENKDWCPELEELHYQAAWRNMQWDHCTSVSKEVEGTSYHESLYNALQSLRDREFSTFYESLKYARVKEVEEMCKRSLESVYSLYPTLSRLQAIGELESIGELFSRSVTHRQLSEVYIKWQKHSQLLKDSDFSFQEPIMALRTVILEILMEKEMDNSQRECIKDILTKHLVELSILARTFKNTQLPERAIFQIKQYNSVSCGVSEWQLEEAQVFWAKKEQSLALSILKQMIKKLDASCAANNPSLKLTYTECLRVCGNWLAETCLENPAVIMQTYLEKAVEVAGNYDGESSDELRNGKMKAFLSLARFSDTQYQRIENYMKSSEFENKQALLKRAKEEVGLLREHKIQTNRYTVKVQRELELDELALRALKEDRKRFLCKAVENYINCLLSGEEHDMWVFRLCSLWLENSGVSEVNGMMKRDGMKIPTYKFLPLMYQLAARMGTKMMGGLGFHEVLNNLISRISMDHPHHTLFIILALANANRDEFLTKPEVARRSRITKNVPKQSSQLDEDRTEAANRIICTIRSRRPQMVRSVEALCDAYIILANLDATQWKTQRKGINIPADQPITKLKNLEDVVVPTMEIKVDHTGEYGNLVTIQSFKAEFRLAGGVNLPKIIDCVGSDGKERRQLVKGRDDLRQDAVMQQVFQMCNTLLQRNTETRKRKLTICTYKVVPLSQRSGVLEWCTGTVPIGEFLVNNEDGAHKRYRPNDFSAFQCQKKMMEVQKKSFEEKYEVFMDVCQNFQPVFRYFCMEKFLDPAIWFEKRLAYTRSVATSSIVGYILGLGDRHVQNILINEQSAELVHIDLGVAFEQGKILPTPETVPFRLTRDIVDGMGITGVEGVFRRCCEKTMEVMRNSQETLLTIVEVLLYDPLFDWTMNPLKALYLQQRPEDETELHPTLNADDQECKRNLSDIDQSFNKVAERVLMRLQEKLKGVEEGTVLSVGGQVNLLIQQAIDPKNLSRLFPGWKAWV
UniProt P11142: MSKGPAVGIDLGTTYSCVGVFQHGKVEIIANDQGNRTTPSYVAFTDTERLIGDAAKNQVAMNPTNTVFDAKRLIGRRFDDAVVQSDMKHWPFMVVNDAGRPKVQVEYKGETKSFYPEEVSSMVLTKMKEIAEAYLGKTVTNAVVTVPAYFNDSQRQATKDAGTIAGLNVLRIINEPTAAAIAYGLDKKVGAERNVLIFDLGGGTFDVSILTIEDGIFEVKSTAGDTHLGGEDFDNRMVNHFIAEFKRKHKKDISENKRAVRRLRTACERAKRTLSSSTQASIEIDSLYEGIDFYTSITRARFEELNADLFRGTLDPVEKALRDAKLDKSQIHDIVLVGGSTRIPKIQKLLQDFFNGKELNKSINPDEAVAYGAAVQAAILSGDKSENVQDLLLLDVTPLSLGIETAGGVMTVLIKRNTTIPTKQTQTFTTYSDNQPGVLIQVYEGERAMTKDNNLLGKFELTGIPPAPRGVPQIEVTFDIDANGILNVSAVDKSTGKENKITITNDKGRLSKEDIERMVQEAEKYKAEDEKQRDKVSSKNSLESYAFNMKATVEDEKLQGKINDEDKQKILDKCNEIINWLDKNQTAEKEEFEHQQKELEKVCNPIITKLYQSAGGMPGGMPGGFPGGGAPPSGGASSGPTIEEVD
UniProt P06748: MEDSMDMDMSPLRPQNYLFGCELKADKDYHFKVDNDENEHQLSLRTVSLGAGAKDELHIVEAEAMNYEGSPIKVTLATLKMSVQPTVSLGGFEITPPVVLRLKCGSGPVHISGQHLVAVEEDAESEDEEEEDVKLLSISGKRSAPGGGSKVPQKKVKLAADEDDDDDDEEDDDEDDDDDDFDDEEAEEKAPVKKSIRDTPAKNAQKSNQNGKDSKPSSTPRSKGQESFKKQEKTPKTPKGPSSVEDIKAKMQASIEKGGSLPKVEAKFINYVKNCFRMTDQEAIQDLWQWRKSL

No constants are given. Whether binding was seen depends on the method and setting. In cells and extracts the contact can be indirect. Some entries that bind do so weakly or less than the wild type.

This assay addresses phosphorylated ATM (human (endogenous in PSC27)) (UniProt Q13315). Nature of the assay: co-IP.

With HSPA8 (from UniProt P11142 1-646), the binding entry is “binds”.
In the case of NPM1 (from UniProt P06748 1-294), the binding result is “binds”.
